Two substances from paper PMC3713054 can be followed below.

Protein sequences, listed by entry. Tags and fused reporters are not part of them. Residues count along the entry.
UniProt Q01097, residues 27-1482: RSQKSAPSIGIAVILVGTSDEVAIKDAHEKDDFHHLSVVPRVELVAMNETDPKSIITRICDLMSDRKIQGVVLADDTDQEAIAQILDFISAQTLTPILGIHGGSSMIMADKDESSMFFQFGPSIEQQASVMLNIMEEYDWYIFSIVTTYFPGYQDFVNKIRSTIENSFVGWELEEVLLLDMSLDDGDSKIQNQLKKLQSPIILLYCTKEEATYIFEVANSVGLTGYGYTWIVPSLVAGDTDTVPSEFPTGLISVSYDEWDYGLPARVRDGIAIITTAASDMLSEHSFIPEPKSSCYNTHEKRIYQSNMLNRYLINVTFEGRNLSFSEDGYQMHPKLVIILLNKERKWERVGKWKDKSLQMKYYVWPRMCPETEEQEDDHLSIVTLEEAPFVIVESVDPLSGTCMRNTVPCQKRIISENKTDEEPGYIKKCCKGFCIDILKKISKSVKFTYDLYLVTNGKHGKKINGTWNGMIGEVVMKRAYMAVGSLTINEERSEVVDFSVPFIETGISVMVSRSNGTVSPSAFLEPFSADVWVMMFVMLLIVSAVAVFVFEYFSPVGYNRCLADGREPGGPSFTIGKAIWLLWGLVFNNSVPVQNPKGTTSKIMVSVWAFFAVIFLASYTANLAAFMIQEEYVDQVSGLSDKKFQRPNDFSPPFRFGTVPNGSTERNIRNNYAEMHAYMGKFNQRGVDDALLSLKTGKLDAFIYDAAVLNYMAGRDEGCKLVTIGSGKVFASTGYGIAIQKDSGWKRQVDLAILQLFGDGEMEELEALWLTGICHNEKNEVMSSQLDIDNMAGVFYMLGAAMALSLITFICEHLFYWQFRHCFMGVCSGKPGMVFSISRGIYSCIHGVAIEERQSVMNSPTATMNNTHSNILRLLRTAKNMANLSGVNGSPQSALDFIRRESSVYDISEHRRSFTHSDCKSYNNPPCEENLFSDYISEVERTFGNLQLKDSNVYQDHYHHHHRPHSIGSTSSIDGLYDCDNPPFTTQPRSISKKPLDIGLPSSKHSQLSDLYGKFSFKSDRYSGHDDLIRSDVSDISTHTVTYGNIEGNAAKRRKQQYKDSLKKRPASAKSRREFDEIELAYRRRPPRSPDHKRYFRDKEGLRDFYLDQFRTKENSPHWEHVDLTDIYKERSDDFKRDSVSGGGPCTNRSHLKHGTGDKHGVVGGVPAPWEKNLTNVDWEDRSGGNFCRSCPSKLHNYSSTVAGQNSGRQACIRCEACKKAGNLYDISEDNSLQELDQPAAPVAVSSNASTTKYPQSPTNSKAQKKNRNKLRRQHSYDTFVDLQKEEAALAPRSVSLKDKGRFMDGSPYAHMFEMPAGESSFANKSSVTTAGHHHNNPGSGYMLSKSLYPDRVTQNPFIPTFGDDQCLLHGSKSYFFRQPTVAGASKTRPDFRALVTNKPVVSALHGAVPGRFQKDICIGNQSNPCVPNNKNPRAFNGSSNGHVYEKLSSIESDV

Results are given in words; binding and its absence hold for the method and conditions named. In cells and extracts the contact can be indirect. Some entries that bind do so weakly or less than the wild type.

For the assay, the target named is T1, mitochondrial uncoupling protein-2 (mouse (endogenous in murine neocortical neurons)) (UniProt P70406).
T1 sequence: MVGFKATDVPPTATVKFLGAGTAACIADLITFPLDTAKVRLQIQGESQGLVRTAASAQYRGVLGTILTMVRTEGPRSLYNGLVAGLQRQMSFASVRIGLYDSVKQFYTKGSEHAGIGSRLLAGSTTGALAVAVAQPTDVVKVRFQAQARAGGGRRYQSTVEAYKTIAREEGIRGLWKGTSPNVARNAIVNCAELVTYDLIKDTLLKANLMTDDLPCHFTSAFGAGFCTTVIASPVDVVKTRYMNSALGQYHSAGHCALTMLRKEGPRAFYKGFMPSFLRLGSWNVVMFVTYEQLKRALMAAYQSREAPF
As to the kind of experiment: co-IP; lysate of murine neocortical neurons cultured for 8 days (lysis buffer with 1% Nonidet P-40); incubation with the anti-UCP2 antibody for 16 h at 4°C; washed 3 times with 20 mM Tris-HCl (pH 7.5), 137 mM NaCl; immunoblot for GluN2A and GluN2B; cells exposed to ethanol at 50 mM to 1 M for 20 min before lysis. For orientation: A western blot detects proteins with antibodies after separation by electrophoresis.

As for “N-methyl-D-aspartate receptor GluN2B subunit (from UniProt Q01097 27-1482)”, the binding result is reported as “binds”.
The result for “N-methyl-D-aspartate receptor GluN2A subunit (from UniProt P35436 23-1464)” reads “binds”.
